Data taken from article PMC10858942.
No constants are given. Whether binding was seen depends on the method and setting. For some of these results: Binding seen in cells or lysates may run through a third protein. Some entries that bind do so weakly or less than the wild type.

Chains of the proteins cited; added tags and fusions are not shown. Residues count along the entry.
UniProt Q9NZQ7, residues 19-290: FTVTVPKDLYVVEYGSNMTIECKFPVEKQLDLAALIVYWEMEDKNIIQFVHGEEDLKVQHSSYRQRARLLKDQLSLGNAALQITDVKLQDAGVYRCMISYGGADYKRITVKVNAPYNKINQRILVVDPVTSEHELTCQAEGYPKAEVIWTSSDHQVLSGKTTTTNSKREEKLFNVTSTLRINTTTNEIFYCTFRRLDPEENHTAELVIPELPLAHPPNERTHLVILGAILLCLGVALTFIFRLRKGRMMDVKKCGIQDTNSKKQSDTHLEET
UniProt O43791: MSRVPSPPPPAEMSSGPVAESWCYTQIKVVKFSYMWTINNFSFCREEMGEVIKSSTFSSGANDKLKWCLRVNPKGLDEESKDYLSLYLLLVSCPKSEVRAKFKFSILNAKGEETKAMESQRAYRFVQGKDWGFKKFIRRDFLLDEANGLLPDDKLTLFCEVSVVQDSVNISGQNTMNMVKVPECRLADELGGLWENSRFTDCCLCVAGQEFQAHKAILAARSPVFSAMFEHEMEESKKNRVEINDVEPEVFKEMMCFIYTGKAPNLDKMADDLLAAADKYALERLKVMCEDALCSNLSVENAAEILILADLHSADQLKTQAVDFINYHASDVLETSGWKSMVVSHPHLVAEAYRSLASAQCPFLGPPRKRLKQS
UniProt Q9NYF8: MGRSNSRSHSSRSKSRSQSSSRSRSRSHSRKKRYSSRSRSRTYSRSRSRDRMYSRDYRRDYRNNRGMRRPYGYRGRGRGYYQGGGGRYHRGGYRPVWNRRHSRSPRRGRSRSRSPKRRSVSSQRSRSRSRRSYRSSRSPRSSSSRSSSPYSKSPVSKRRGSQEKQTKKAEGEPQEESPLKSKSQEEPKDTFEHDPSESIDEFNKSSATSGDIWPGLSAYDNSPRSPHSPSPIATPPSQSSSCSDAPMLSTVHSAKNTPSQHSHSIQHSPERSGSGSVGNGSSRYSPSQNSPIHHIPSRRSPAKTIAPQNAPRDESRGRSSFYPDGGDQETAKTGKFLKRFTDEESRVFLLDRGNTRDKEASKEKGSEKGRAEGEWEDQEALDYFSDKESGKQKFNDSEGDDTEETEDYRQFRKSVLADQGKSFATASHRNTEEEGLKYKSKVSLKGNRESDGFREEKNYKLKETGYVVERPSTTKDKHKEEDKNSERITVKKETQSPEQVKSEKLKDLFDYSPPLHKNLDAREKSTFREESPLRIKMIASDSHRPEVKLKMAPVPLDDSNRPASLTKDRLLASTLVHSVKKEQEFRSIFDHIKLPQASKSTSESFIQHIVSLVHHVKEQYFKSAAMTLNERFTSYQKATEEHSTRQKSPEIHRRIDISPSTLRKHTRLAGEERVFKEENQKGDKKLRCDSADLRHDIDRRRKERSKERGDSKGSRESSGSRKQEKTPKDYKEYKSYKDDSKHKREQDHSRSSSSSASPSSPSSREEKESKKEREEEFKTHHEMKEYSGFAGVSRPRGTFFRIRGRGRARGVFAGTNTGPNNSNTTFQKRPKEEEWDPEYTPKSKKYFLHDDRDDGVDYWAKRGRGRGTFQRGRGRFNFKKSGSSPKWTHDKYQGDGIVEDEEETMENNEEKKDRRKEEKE

Legend:
Flag-PD-L1 [1] = target: Flag-PD-L1 (UniProt Q9NZQ7); assay: co-IP; Flag-PD-L1 immunoprecipitates (Supplemental Fig. 8d, e); BCLAF1 upregulated; SPOP knocked down or overexpressed; cells not given
Flag-SPOP = Flag-SPOP (UniProt O43791); assay: co-IP; HEK-293T cells transfected 24 h with the tagged constructs; anti-Flag M2 agarose beads at 4 °C overnight, washed three times with BC100 buffer (20 mM Tris-Cl pH 7.9, 100 mM NaCl, 0.2 mM EDTA, 20% glycerol) with 0.2% Triton X-100; Western blot
Flag-BCLAF1 = Flag-BCLAF1 (UniProt Q9NYF8); assay: as above
[2] = target: endogenous BCLAF1 (SK-Hep1 cells) (human (endogenous in SK-Hep1)) (UniProt Q9NYF8); assay: co-IP; cell extracts of SK-Hep1 cells, IgG or anti-BCLAF1 antibody; endogenous proteins; Western blot
[3] = target: endogenous BCLAF1 (SK-Hep1 cells) (human (endogenous in SK-Hep1)) (UniProt Q9NYF8); assay: proximity ligation; fixed and permeabilised SK-Hep1 cells; anti-BCLAF1 and anti-SPOP primary antibodies, Duolink in situ Red kit; control with BCLAF1 primary antibody only
[4] = target: BCLAF1 (tag not stated for the experiment) (UniProt Q9NYF8); assay: co-IP; BCLAF1 with full-length SPOP and three deletion mutants (Supplemental Fig. 2c); cells and tags not stated
Flag-PD-L1 [5] = target: Flag-PD-L1 (UniProt Q9NZQ7); assay: co-IP; HEK-293T cells treated with MG-132 (20 μM) for 8 h before lysis; SPOP with PD-L1, with or without BCLAF1 co-expressed
[6] = target: recombinant SPOP of the GST pull-down (UniProt O43791); assay: pull-down; GST fusion proteins on glutathione-sepharose beads incubated 2 h with His-tagged recombinant protein; 20 mM Tris-HCl pH 7.5, 150 mM NaCl, 0.1% NP-40, 1 mM DTT, 10% glycerol, 1 mM EDTA, 2.5 mM MgCl2; Western blot; both purified

“BCLAF1 (tag not stated for the experiment) (from UniProt Q9NYF8 1-920)” was tested, and the binding (Flag-PD-L1 [1]) was “binds”.
Myc-BCLAF1 (from UniProt Q9NYF8 1-920) was tested, and the binding (Flag-SPOP) was “binds”.
In the case of Myc-SPOP (from UniProt O43791 1-374), the binding (Flag-BCLAF1) is reported as “binds”.
“endogenous SPOP (HEK-293T cells) (from UniProt O43791 1-374)” was tested, and the binding (Flag-BCLAF1) was “binds”.
With “endogenous SPOP (SK-Hep1 cells) (from UniProt O43791 1-374)” the binding [2] was “binds” and the binding [3] was “binds”.
In the case of “full-length SPOP (SPOP-WT) (from UniProt O43791 1-374)”, the binding [4] is reported as “binds”, the binding (Flag-PD-L1 [5]) is reported as “binds” and the binding (Flag-PD-L1 [1]) is reported as “binds”.
In the case of “recombinant BCLAF1 (wild type) of the GST pull-down (from UniProt Q9NYF8 1-920)”, the binding [6] is reported as “binds”.
